In general, AC50 refers to the concentration giving half of the maximal activity seen.

This is one part of the list. These are further read-outs of the screen, such as a control signal, another cell line or another target. No call is given for them. The list favours compounds with an active or inconclusive main result. Words in brackets tell the shape of the fitted curve; partial curves, single points and poor fits give uncertain potencies.

This assay is described as follows: Cell signaling CRE-BLA (Fsk stim). The settings on record: CHO CRE-bla reporter (cAMP response element driving beta-lactamase), forskolin EC10, beta-lactamase ratio; measured here: 460 nm blue channel. Put shortly: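 The 460nm/530nm emission ratio after CCF4 loading defined %Activity, from which AC50 values were obtained. CRE-bla CHO cells received compound dilution series together with an EC10 level of NKH 477 for 3 hours at 37 degrees Celsius.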
Turning to `COc1cccc(/C=N/n2c(CO)nc3ccccc32)c1OC`, the AC50 is 0.1 µM [rising, full curve]. Next, `COc1cc(C(=O)COC(=O)Cc2cnc3sccn23)cc(OC)c1OC`: 12.6 µM [rising, single point]. Take `CCNC(=O)c1cc2c(=O)n3cccc(C)c3nc2n(Cc2ccc(C)cc2)c1=N`: the AC50 is 1 µM [rising, full curve].

In the case of `COc1ccc(-c2nc3cnc(N4CCN(C)CC4)nc3n(Cc3cccs3)c2=O)cc1`, the AC50 was 2.51 µM [rising, full curve]. Next, `Cc1nn(Cc2ccc(Cl)cc2Cl)c(C)c1NC(=O)c1nc2n(n1)C(C(F)F)CC(C)N2` (centres undefined): 3.16 µM [falling, single point]. With `COC(=O)C1=CN(CC2CCCO2)C=C(C(=O)OC)C1c1ccsc1` (centres undefined) the figure was 12.6 µM [rising, partial curve]; with `CCn1c2ccccc2c2nnc(SCC(=O)NC(CC(C)C)C(=O)OC)nc21` (centres undefined), 10 µM [rising, partial curve]; with `O=S(=O)(/N=S1/CC=CCN1S(=O)(=O)c1ccccc1)c1ccccc1` (centres undefined), 15.8 µM [falling, partial curve].

For `Cc1ccc(N(Cc2ccco2)C(=O)c2cccc(S(=O)(=O)N(C)C)c2)cc1`, the AC50 was 5.01 µM [rising, partial curve]. Next, `CCCS(=O)(=O)N1CCC(C(=O)N2CCOCC2)CC1`: 0.00398 µM [falling, full curve, poor fit]. For `O=C1Nc2ccccc2OC1CC(=O)N1CCN(c2cccc(C(F)(F)F)c2)CC1` (centres undefined), the AC50 is 20 µM [falling, partial curve, poor fit]. Next, `CCOC(=O)c1c(NC(=O)CNCC(O)CO)sc(C)c1C` (centres undefined): 15.8 µM [rising, partial curve]. Next, `O=C(O)c1cc2nc(-c3ccc(F)cc3)cc(C(F)(F)F)n2n1`: 15.8 µM [rising, single point]; `COc1ccc(OC)c(-c2cc(C(=O)Nc3c(C)nn(Cc4ccccc4C)c3C)no2)c1`: 2 µM [rising, full curve]. `COc1ccc(-c2nc3cnc(OC)nc3n(Cc3cccc(OC)c3)c2=O)cc1`: the AC50 is 3.16 µM [rising, full curve]. Turning to `COC(=O)c1ccc(-n2nnnc2SCc2ccccc2OC)cc1`, the AC50 is 12.6 µM [rising, partial curve].

`COc1cccc(-c2nn3c(-c4cccc(C)c4)nnc3s2)c1`: the AC50 is 5.01 µM [falling, single point].

For `COCCNc1nc(-c2cccc(OC)c2)nc2ccccc12`, the AC50 is 7.94 µM [rising, partial curve].

For `COc1ncc2nc(-c3ccccc3)c(=O)n(CCc3ccccc3)c2n1`, the half-maximal activity concentration (AC50) was 10 µM [rising, partial curve].

Take `CCc1ccc2[nH]c(=O)c(CN(Cc3ccc(OC)cc3)Cc3nnnn3CCOC)cc2c1`: the AC50 is 5.01 µM [rising, single point]. With `CCc1nc(C)c(C#N)c2cc(OC)c(OC)cc12` the figure was 0.2 µM [rising, full curve]; with `Cc1ccc2c(CN3CCN(S(=O)(=O)c4ccc5c(c4)OCCO5)CC3)cc(=O)oc2c1C`, 25.1 µM [falling, single point]. With `COc1cccc(Cn2c(=O)c(-c3ccc(Cl)cc3)nc3cnc(N4CCOCC4)nc32)c1` the figure was 3.98 µM [rising, partial curve]; with `COc1cc(C(=O)Nc2nnc(CC(=O)N3CCOCC3)s2)cc(OC)c1OC`, 0.01 µM [falling, full curve]. Next, `COc1cc(C(=O)NCc2nnc(SCC(=O)N3CCc4ccccc43)o2)cc(OC)c1OC`: 15.8 µM [rising, single point]; `COCCOC(=O)c1c(C)oc2ccc(OCc3cc(C(=O)OC)oc3C)cc12`: 15.8 µM [rising, partial curve]; `N#Cc1ccc(C23CC4CC(CC(C4)C2)C3)[nH]c1=O`: 7.94 µM [rising, single point]. As for `N=c1oc2ccc3ccccc3c2cc1-c1nnc2n1CCCCC2`, the AC50 is 10 µM [rising, partial curve].

`CN1C(=O)C(O)(CC(=O)c2cccnc2)c2ccccc21` (centres undefined): the AC50 was 0.00398 µM [falling, full curve, poor fit]. Turning to `COCCNc1cc(-c2ccccc2C(F)(F)F)ncn1`, the AC50 was 5.01 µM [rising, single point]. Next, `CC(C)n1nnnc1SCC(=O)NCc1cccs1`: 3.98 µM [falling, partial curve]; `Cn1c(=O)[nH]c(=O)c2c1nc(CN1CCOCC1)n2CCCc1ccccc1`: 10 µM [rising, partial curve]. Next, `Cc1cc(Nc2ccccc2F)n2nc(C)nc2n1`: 10 µM [rising, single point]; `C#CCSc1nc(-c2cccs2)ccc1C#N`: 12.6 µM [rising, partial curve]. With `Cc1cc(C)n(-c2nnc(C)n2NS(C)(=O)=O)n1`, the AC50 was 0.1 µM [falling, full curve, poor fit]. With `CCC(=O)c1cc2c(cc1NC(=O)c1cccs1)OCCO2` the figure was 12.6 µM [rising, partial curve]; with `c1nc(NCCN2CCOCC2)c2cc(-c3ccc4c(c3)OCO4)ccc2n1`, 12.6 µM [rising, partial curve]. `CSc1nc(NC(C)(C)C)nc(N2CCOCC2)n1`: the AC50 is 12.6 µM [rising, partial curve]. Regarding `O=C1c2ccccc2C(=O)N1Cc1nn2c(-c3ccc(Cl)cc3)nnc2s1`, the AC50 was 6.31 µM [rising, partial curve]. In the case of `CCc1cccc(Nc2cc(C)nc3nc(C)nn23)c1`, the AC50 is 10 µM [rising, partial curve].

Turning to `COc1ccccc1NC(=O)CSc1ccc2nnc(-c3ccncc3)n2n1`, the AC50 was 20 µM [falling, single point]. Next, `COc1cc(C(=O)NC2CCN(Cc3nnnn3Cc3cccs3)CC2)cc(OC)c1OC`: 20 µM [rising, single point]. With `C/C=C/Cn1c(SCc2ccc(Cl)cc2)nc2c1c(=O)[nH]c(=O)n2C` the figure was 2.51 µM [rising, full curve]; with `COc1ccc(-n2c(=O)c(C)nc3cnc(Nc4ccccc4)nc32)cc1`, 10 µM [rising, partial curve].

These data come from PubChem BioAssay AID662 (National Center for Advancing Translational Sciences (NCATS), 2007).
